{"source": "PubChem BioAssay AID1259308 (NCATS, 2017)", "test": "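Genes whose loss raises luciferase production in HEK293 cells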 (primary screen)", "system": "human HEK293 embryonic kidney cells stably expressing firefly luciferase (HEK-CMV-Luc2-Hygro)", "reagents": "single siRNA against human genes, 0.8 pmol siRNA per well", "time to read-out": "72 h", "measured": "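Reporter luminescence and viable-cell signal on separate replicate plates, given as percent of non-targeting control and median/MAD z-scores, plus per-cell luciferase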", "direction": "total luciferase, z-score and total luciferase, % of control: higher = more reporter protein produced", "hit rule": "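Active when the median/MAD z-score for overall luciferase is greater than 3; a gene was taken forward for validation with new siRNAs if at least two of its three siRNAs passed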", "calls": "active = raised luciferase; inactive = no rise", "note": "This is an unselected part of about 59,000 reagents tested. In the full data, about 1,510 (2.6%) were called active. 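Calls use total luciferase alone and ignore viability, so some active siRNAs may act by altering cell number.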 The numbers tell different reagents against one gene apart. Further read-outs or replicates are left out here. No sequences are given here."}
{"target":"POLR3GL (RNA polymerase III subunit GL)","reagent no.":1,"total luciferase, z-score":0.584,"total luciferase, % of control":93.5,"outcome":"inactive"}
{"target":"POLR3GL (RNA polymerase III subunit GL)","reagent no.":2,"total luciferase, z-score":0.264,"total luciferase, % of control":87.1,"outcome":"inactive"}
{"target":"POLR3GL (RNA polymerase III subunit GL)","reagent no.":3,"total luciferase, z-score":-1.25,"total luciferase, % of control":57.1,"outcome":"inactive"}
{"target":"PRDM7 (PR/SET domain 7)","reagent no.":1,"total luciferase, z-score":1.9,"total luciferase, % of control":120,"outcome":"inactive"}
{"target":"PRDM7 (PR/SET domain 7)","reagent no.":2,"total luciferase, z-score":0.868,"total luciferase, % of control":99.2,"outcome":"inactive"}
{"target":"PRDM7 (PR/SET domain 7)","reagent no.":3,"total luciferase, z-score":-0.46,"total luciferase, % of control":72.7,"outcome":"inactive"}
{"target":"EDA (ectodysplasin A)","reagent no.":1,"total luciferase, z-score":1.6,"total luciferase, % of control":114,"outcome":"inactive"}
{"target":"EDA (ectodysplasin A)","reagent no.":2,"total luciferase, z-score":-1.18,"total luciferase, % of control":58.4,"outcome":"inactive"}
{"target":"EDA (ectodysplasin A)","reagent no.":3,"total luciferase, z-score":-0.0434,"total luciferase, % of control":81,"outcome":"inactive"}
{"target":"ADARB2 (adenosine deaminase RNA specific B2 (inactive))","reagent no.":1,"total luciferase, z-score":0.693,"total luciferase, % of control":95.7,"outcome":"inactive"}
{"target":"ADARB2 (adenosine deaminase RNA specific B2 (inactive))","reagent no.":2,"total luciferase, z-score":1.22,"total luciferase, % of control":106,"outcome":"inactive"}
{"target":"ADARB2 (adenosine deaminase RNA specific B2 (inactive))","reagent no.":3,"total luciferase, z-score":-0.836,"total luciferase, % of control":65.3,"outcome":"inactive"}

A few values from the entries so far.
Result for PRDM7 (PR/SET domain 7) #2 in “outcome”: inactive
Under “outcome”, PRDM7 (PR/SET domain 7) #3 is entered as inactive
